Test results taken from US20110182994A1, “METHODS AND SYSTEMS FOR PRODUCTION OF NANOPARTICLES” (S.K. PHARMACEUTICALS, INC., priority 2008, published 2011).
At least one structure is not confirmed: it was looked up by name or label, or the drawing left a doubt.

Test: Percent efficiency of dexamethasone encapsulation in nanoparticles smaller than 450 nm (HPLC-MS before and after 0.45 μm filtration)
Assay type: physicochemical
Conditions: 0.7 mL/s, drug solution in N-methylpyrrolidone 13.94 wt %

In the case of `C[C@@H]1C[C@H]2[C@@H]3CCC4=CC(=O)C=C[C@]4(C)[C@@]3(F)[C@@H](O)C[C@]2(C)[C@@]1(O)C(=O)CO` [dexamethasone], the “efficiency of dexamethasone encapsulation” value (shortened to “efficiency”) (after sonication of the drug solution, carrier Tween 80/deionized water 5 mg/mL, 500 μL/min) is reported as 40%, the “efficiency” value (carrier fluid at 25° C., carrier Tween 80/deionized water 1 mg/mL, 500 uL/min) is reported as 3% and the “efficiency” value (carrier fluid at 40° C., carrier Tween 80/deionized water 1 mg/mL, 500 uL/min) is reported as 13%. The “efficiency” value (without sonication (high frequency mechanical vibration) of drug needle, carrier Tween 80/deionized water 5 mg/mL, 500 μL/min) was 27%.
